These are yes or no findings as the source states them, for the method shown. Binding seen in cells or lysates may run through a third protein.
Target: LgBiT-tagged cereblon (CRBN) (UniProt Q96SW2)
Experiment: split reporter

Sequences of proteins named here, by UniProt entry; tags and fusion partners are left off. A change or cut given only in a name is not applied to a line headed by its entry.
UniProt Q96SW2: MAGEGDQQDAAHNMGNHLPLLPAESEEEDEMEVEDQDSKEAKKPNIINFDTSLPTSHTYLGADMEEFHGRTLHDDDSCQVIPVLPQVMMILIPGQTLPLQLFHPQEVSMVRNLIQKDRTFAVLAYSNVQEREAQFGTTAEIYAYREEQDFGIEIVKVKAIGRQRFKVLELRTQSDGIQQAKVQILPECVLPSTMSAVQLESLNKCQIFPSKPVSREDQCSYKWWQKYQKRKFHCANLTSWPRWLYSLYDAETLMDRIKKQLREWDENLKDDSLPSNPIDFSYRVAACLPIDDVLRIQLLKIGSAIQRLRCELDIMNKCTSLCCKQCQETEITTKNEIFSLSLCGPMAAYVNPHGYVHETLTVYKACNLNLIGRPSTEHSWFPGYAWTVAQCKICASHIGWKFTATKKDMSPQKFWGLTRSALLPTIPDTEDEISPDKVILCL
UniProt Q8TDX7: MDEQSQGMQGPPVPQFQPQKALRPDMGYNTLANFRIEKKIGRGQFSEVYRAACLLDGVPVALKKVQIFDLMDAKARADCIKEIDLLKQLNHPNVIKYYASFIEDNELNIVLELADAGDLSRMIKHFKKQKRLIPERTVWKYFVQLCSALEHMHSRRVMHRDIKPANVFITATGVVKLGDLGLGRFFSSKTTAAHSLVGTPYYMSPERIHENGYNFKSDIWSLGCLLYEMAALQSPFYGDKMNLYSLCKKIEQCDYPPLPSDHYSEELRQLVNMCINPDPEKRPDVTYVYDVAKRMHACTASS

binding: no binding
Substance: SmBiT-tagged G57N NEK7 mutant (from UniProt Q8TDX7 1-302)

Source: paper doi:10.1101/2024.11.06.622079
